About 7,500 (2.1%) of roughly 360,000 compounds were called active. The inconclusive results got no clear call from the source; some entries with a clear call stand among them for comparison. Calls come from the whole dose curve; as a rule, active = well fitted inhibition curve with a large enough effect; inconclusive = small, poorly fitted or top-dose-only effect, or effect the other way; inactive = flat fitted curve, though single readings scatter. A potency beside an inconclusive call is a rough fit, not a confirmed value.
experiment: Nrf2 qHTS screen for inhibitors; details: A549 ARE-Fluc reporter, luciferase luminescence, 18-24 h; activity change, negative = inhibition: at 46 µM (top of the series); note: nearly all actives have a fitted effect of over 60% in size
In short: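 In this cell-based qHTS, ARE-driven firefly luciferase in A549 cells reports Nrf2 activity; the luminescent signal after BugLite lysis is the measured value, with a prior CellTiter-Fluor read for cell health.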
% is set by controls: 0 for no effect and ±100 for the full control effect; potency is the fitted concentration of half-maximal effect.

Compound | Potency | activity change, negative = inhibition
COC(=O)c1ccc(NC(=O)CN(C)Cc2cccc(F)c2)cc1 | inconclusive: 20.6 µM [falling, single point] | –
O=C1C2C3C=CC(O3)C2C(=O)N1N=Cc1ccc2c(c1)OCO2 (stereo not given) | inconclusive: 8.2 µM [activator, partial curve] | –
COc1cc2oc(=O)cc(-c3ccc(-c4ccc(O)cc4)cc3)c2c(OC)c1OC | – | inactive: -26.4%
CCOC(=O)c1sc(=NC(=O)COc2ccccc2)n(C)c1C | – | inactive: 2.05%
CCN(CC)C(=O)CSc1nc2ccc(NC(=O)CSc3nnc(N)s3)cc2s1 | inconclusive: 23.1 µM [falling, single point] | –
CN(c1ccccc1)P(=O)(N(C)c1ccccc1)N(C)c1ccccc1 | active: 16.4 µM | –
CCN1CCN(C(=O)c2cnn(-c3ccc(F)cc3)c2-n2cccc2)CC1 | inconclusive: 29.1 µM [activator, single point] | –
Nc1ccc(CCC(=O)N2CCCC2)cc1 | inconclusive: 9.2 µM [activator, partial curve] | –
CC(C)Cn1c(SCC(=O)NCc2ccc(Cl)cc2)nnc1-c1cccc(S(=O)(=O)N2CCOCC2)c1 | inconclusive: 16.4 µM [falling, partial curve, poor fit] | –
O=C(CCC1N=C2c3ccccc3N=C(SCC(=O)Nc3ccccc3F)N2C1=O)NCc1ccccc1 (stereo not given) | – | inactive: 6.78%
Cc1ccc(/C=C(\C#N)C(=O)Nc2cccc(C)n2)cc1 | inconclusive: 29.1 µM [falling, single point] | –
CCOC(=O)c1[nH]c2ccc(F)cc2c1NC(=O)CN1CCN(C/C=C/c2ccccc2)CC1 | inconclusive: 29.1 µM [falling, single point] | –
O=C1c2[nH]nc(-c3ccccc3O)c2C(c2ccc(Cl)cc2)N1Cc1ccco1 (stereo not given) | – | inactive: -3.8%
Cc1ccc2nc(N3CCN(Cc4nnnn4Cc4ccccc4)CC3)c(C#N)cc2c1 | inconclusive: 29.1 µM [falling, single point] | –
COc1ccc2c(/C=N/Nc3ccc(C(=O)O)cc3)c[nH]c2c1 | inconclusive: 7.31 µM [activator, partial curve] | –
COc1ccccc1NC(=O)c1c(Nc2ccccc2F)sc(C(=O)Nc2cccc(Cl)c2)c1N | inconclusive: 29.1 µM [falling, single point] | –
CCOC(=O)c1cccc(NC(=O)COc2nsnc2N2CCOCC2)c1 | inconclusive: 18.4 µM [falling, single point] | –
NC(=S)N/N=C1\CC(c2ccc3c(c2)OCCCO3)Oc2ccc(F)cc21 (stereo not given) | – | inactive: -14.6%
Cc1cc(N2CCCC(C(=O)Nc3ccc4c(c3)CCC4)C2)n2ncnc2n1 (stereo not given) | active: 13 µM | –
O=C(CC1Sc2ccc(C(F)(F)F)cc2NC1=O)Nc1ccc(Cl)c(C(F)(F)F)c1 (stereo not given) | inconclusive: 18.4 µM [falling, single point] | –
O=C(CCN1C(=O)C2CC=C(Cl)CC2C1=O)NC1CCCCC1 (stereo not given) | inconclusive: 6.51 µM [falling, single point] | –
O=C(Nc1ccc(-c2cn3ccsc3n2)cc1)C1COc2ccccc2O1 (stereo not given) | inconclusive: 18.4 µM [falling, partial curve, poor fit] | –
Cc1ccc(NCC(=O)N/N=C/c2ccc(C(=O)O)cc2)cc1 | – | inactive: -4.6%

Compound | Potency | activity change, negative = inhibition
Cc1ccc(N/C=C(\C#N)c2ccc(OCCCF)cc2)cc1 | inconclusive: 5.17 µM [activator, full curve, poor fit] | –
N#Cc1ccc(CN2CCN(C(=O)CNS(=O)(=O)c3ccc4c(c3)OCCCO4)CC2)cc1 | inconclusive: 29.1 µM [falling, single point] | –
Fc1ccc(N/N=C/c2cccnc2)c(F)c1 | – | inactive: 22.4%
O=c1cc(CN2CCN(c3ccccc3)CC2)nc2scc(-c3ccccc3)n12 | active: 14.6 µM | –
CSCCC(=O)N1CCCC(CNC(=O)c2ccc(-c3ccccc3)cc2)C1 (stereo not given) | inconclusive: 0.116 µM [falling, full curve, poor fit] | –
COc1ccc(-c2nc3ccccc3c(=O)n2Cc2ccccc2)cc1OCc1ccc(NC(C)=O)cc1 | – | inactive: 7.15%
COc1ccccc1-c1noc(-c2ccc(N3CCC(C)CC3)c([N+](=O)[O-])c2)n1 | inconclusive: 1.03 µM [falling, partial curve] | –
COc1ccc(C(=O)N2[C@@H](C(C)C)COc3cc(Br)ccc3S2(=O)=O)cc1 | inconclusive: 20.6 µM [falling, single point] | –
COc1cc(C(=O)Nc2cc3c(cc2C)n(C)c(=O)c(=O)n3C)cc(OC)c1OC | – | inactive: -3.02%
CSc1ccccc1NC(=O)CN1C(=O)C2CC=CCC2C1=O (stereo not given) | – | inactive: 1.81%
Cn1c(=O)c2c(nc(NNC(=O)C(F)(F)F)n2C)n(C)c1=O | – | inactive: 4.5%
CC1Cc2ccccc2N1C(=O)CSc1nnc2c(n1)[nH]c1ccccc12 (stereo not given) | inconclusive: 2.91 µM [falling, partial curve, poor fit] | –
CSc1ccc(/C=N/NC(=O)c2cccs2)cc1 | inconclusive: 16.4 µM [activator, partial curve] | –
O=C(O)COc1c(F)c(F)c(C(F)(F)F)c(F)c1F | – | inactive: -10.1%
Cn1c(N)c(C(=O)COC(=O)/C=C/c2ccc(OC(F)F)cc2)c(=O)n(C)c1=O | inconclusive: 8.2 µM [falling, partial curve, poor fit] | –
Cc1ccc(C)c(NC(=O)CN(C)C(=O)c2ccc(-c3cccc(C(F)(F)F)c3)o2)c1 | inconclusive: 25.9 µM [falling, single point] | –
CCC(=O)N1CCc2cc(S(=O)(=O)NC(Cc3ccccc3)C(=O)Nc3ccc(C)cc3)ccc21 (stereo not given) | inconclusive: 32.6 µM [falling, partial curve, poor fit] | –
CC(C)C(=O)N1CCN(c2nc(-c3ccccc3)c3c(c2C#N)CCCC3)CC1 | active: 11.6 µM | –
OCCC1CN(Cc2cnc(-c3ccc(Cl)cc3)nc2)CCN1C1CCCCC1 (stereo not given) | – | inactive: 7.65%
O=C(CSc1ccc(-c2ccco2)nn1)Nc1ccccc1 | – | inactive: 3.85%
CC(C)(C)NC(=O)CSc1nc2ccc(NC(=O)CSc3nnc(N)s3)cc2s1 | active: 20.6 µM | –
COc1cc(/C=C/C(=O)Nc2ccncc2)cc(OC)c1OC | inconclusive: 20.6 µM [falling, single point] | –

Sorted by length of the SMILES (smallest number first): part of the list above.
Compound | Potency | activity change, negative = inhibition
O=C(O)COc1c(F)c(F)c(C(F)(F)F)c(F)c1F | – | inactive: -10.1%
CC1Cc2ccccc2N1C(=O)CSc1nnc2c(n1)[nH]c1ccccc12 (stereo not given) | inconclusive: 2.91 µM [falling, partial curve, poor fit] | –
Cc1ccc(C)c(NC(=O)CN(C)C(=O)c2ccc(-c3cccc(C(F)(F)F)c3)o2)c1 | inconclusive: 25.9 µM [falling, single point] | –

Reference: PubChem BioAssay AID504444 (National Center for Advancing Translational Sciences (NCATS), 2011)
